Laboratory results: patent publication US20220041999A1 (NEOGENE THERAPEUTICS B V, published 2022)
Results are given in words; binding and its absence hold for the method and conditions named. Some results given as binding are weak or reduced against the parent protein; the word gives no strength. One block for each binder: values may come before it.

Experiments:
FOS^WT-mDHFR_B = target: T1, FOS^WT-mDHFR_B; test: split-DHFR complementation, MTX selection of T cells, FACS
T1 chain: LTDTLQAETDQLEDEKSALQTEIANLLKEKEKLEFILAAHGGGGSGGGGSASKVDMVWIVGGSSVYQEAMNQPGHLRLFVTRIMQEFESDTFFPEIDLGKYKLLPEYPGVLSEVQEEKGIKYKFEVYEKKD

FOS^MUT3AA-mDHFR_B = target: T2, FOS^MUT3AA-mDHFR_B; test: as above
T2 chain: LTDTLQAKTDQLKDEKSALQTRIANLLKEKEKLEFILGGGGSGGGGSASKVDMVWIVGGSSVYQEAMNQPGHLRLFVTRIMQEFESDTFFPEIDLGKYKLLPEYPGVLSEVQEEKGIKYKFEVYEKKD

- binding (FOS^WT-mDHFR_B): binds
B1: JUN^MUT3AA-mDHFR_A (other)
chain: RIARLEEEVKTLEAQNSELASTANMLEEQVAQLKQKVGGGGSGGGGSMVRPLNCIVAVSQNMGIGKNGDFPWPPLRNESKYFQRMTTTSSVEGKQNLVIMGRKTWFSIPEKNRPLKDRINIVLSRELKEPPRGAHFLAKSLDDALRLIEQPEL

- binding (FOS^MUT3AA-mDHFR_B): binds
B2: JUN^WT-mDHFR_A (other)
chain: RIARLEEKVKTLKAQNSELASTANMLREQVAQLKQKVMNHGGGGSGGGGSMVRPLNCIVAVSQNMGIGKNGDFPWPPLRNESKYFQRMTTTSSVEGKQNLVIMGRKTWFSIPEKNRPLKDRINIVLSRELKEPPRGAHFLAKSLDDALRLIEQPEL
